Data as given in PubChem BioAssay AID1671190 (National Center for Advancing Translational Sciences (NCATS), 2021).
About 6,100 (1.1%) of roughly 580,000 compounds were called active. This list was built around the results that the source calls inconclusive (neither active nor inactive); the mix of calls is not that of the screen. Calls come from the whole dose curve; as a rule, active = well fitted inhibition curve with a large enough effect; inconclusive = small, poorly fitted or top-dose-only effect, or another doubt; inactive = no such curve, though single readings can be large or run the other way. Potencies beside an inconclusive call are fits to weak or partial responses and may not hold up.

Amino acid sequences for entries named in this document (tags omitted).
UniProt P18054, whole entry, looked up: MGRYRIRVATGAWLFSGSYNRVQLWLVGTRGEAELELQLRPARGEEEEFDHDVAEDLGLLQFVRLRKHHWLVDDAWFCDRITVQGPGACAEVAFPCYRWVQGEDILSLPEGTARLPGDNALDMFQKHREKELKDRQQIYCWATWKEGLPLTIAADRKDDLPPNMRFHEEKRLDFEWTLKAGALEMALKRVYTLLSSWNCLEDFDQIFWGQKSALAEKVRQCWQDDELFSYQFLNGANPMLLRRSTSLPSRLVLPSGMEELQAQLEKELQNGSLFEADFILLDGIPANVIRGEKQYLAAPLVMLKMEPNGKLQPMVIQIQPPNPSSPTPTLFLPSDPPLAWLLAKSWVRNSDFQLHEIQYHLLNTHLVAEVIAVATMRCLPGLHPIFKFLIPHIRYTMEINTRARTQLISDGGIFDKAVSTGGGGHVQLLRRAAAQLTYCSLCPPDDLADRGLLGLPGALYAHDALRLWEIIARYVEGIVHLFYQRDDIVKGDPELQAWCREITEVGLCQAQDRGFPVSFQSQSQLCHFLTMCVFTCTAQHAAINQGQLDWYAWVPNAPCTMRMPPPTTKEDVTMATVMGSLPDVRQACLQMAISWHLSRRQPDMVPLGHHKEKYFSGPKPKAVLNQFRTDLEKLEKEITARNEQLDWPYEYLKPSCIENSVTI

Each compound was assayed against Polyunsaturated fatty acid lipoxygenase ALOX12 (Homo sapiens) (UniProt P18054) (assay: Primary qHTS assay for inhibitors of human arachidonate 12S-lipoxygenase (ALOX12): Round 2). Conditions: purified 12hLO, xylenol orange hydroperoxide absorbance; series mostly up to 108 µM.
How it was run: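 Purified human 12hLO at 150 nM in 25 mM Hepes, 0.01% Triton X-100, pH 7.0, preincubated 15 min at room temperature with compound. Reaction started with 40 uM arachidonic acid, 30 min at room temperature. Hydroperoxide measured by Fe-xylenol orange, 573/405 nm absorbance ratio.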
Potency is the fitted concentration of half-maximal effect.

Question: With C/C(=N\NC(=S)NCC(C)(C)C)c1cc(F)cc(F)c1O as the compound, how does the Potency read?
Answer: Its Potency is inconclusive: 6.31 µM [inhibitor, partial curve, poor fit].

Question: For Cc1onc(-c2cnn(C)c2NCc2ccc(C#N)cc2)c1C(=O)NC1CCCCC1, which Potency is on record?
Answer: The Potency was “inactive”.

Question: For CN(C)Cc1cc(C(C)(C)c2cc(CN(C)C)c(O)c(CN(C)C)c2)cc(CN(C)C)c1O, which Potency is on record?
Answer: Its Potency is “inactive”.

Question: Which Potency does the source give for Cc1cc(C)cc(C(=O)Nc2ccc(-c3nc4ncccc4o3)cc2)c1 here?
Answer: The Potency was inconclusive: 112 µM [inhibitor, single point].

Question: With CCN1CCSc2ccc(C(=O)NC(C)c3ccccc3)cc21 (centres undefined) as the compound, how does the Potency read?
Answer: The Potency was “inactive”.

Question: Cc1ccccc1NS(=O)(=O)c1ccc(C(=O)N(C)CC(=O)Nc2cccc3ccccc23)cc1 was tested. Which Potency did it give?
Answer: Its Potency is inconclusive: 50.1 µM [inhibitor, single point].

Question: For CCOc1ccc2nc(NC(=O)c3cc(=O)c4ccc(C)cc4o3)sc2c1, which Potency is on record?
Answer: Its Potency is “inactive”.

Question: Which Potency does the source give for COCCCNC(=S)NNC(=S)NCCCOC here?
Answer: Its Potency is inconclusive: 31.6 µM [inhibitor, full curve, poor fit].

Question: How did the Potency turn out when COc1ccccc1CNc1nc(-c2c(C)noc2C)nc2ccccc12 was run?
Answer: Its Potency is inconclusive: 7.94 µM [inhibitor, full curve, poor fit].

Question: Which Potency does the source give for CCNc1[nH]c(=O)n(C)c(=O)c1N=O here?
Answer: Its Potency is inconclusive: 22.4 µM [inhibitor, partial curve, poor fit].

Question: Which Potency does the source give for COc1ccc(NC(=O)CN2C(=O)NC3(CCCC3)C2=O)cc1Cl here?
Answer: Its Potency is inconclusive: 112 µM [inhibitor, single point].

Question: How did the Potency turn out when COc1ccc(OC)c(/C=N/NC(=O)c2cc(-c3ccc(C)o3)nc3ccccc23)c1 was run?
Answer: The Potency was inconclusive: 7.08 µM [inhibitor, partial curve, poor fit].

Question: CCCS(=O)(=O)N1C[C@@H](Oc2cccnc2)C[C@H]1C(N)=O was tested. Which Potency did it give?
Answer: The Potency was “inactive”.

Question: With Cc1n[nH]c(=O)c2c(NC(=O)CSc3nnc(-c4ccncc4)n3C)oc(C)c12 as the compound, how does the Potency read?
Answer: The Potency was “inactive”.

Question: How did the Potency turn out when S=c1nc[nH]c2c1sc1nc(-c3ccccc3)c3c(c12)CCCC3 was run?
Answer: Its Potency is active: 44.7 µM.

Question: Which Potency does the source give for Cn1c(=O)c2c(n(Cc3ccccc3)c1=O)NC(=O)C2CC(=O)O (centres undefined) here?
Answer: The Potency was inconclusive: 8.91 µM [inhibitor, partial curve, poor fit].

Question: Cc1ccc(-c2ncc(C(=O)NCCN(C)C3CCCCC3)c(-c3ccncc3)n2)cc1 was tested. Which Potency did it give?
Answer: Its Potency is “inactive”.

Question: With COc1ccc(-c2nc(CNS(=O)(=O)c3ccc(OC)c(OC)c3)cs2)cc1 as the compound, how does the Potency read?
Answer: Its Potency is “inactive”.

Question: COc1ccc(C2C(C#N)=C(N)OC3=C2C(=O)CC(C)(C)C3)cc1 (centres undefined) was tested. Which Potency did it give?
Answer: The Potency was “inactive”.

Question: With Cc1c(NC(=O)c2cc(-c3ccc(Cl)c(Cl)c3)on2)c(=O)n(-c2ccccc2)n1C as the compound, how does the Potency read?
Answer: The Potency was inconclusive: 50.1 µM [inhibitor, partial curve, poor fit].

Question: Cc1cc(Nc2cccc(Cl)c2C)n2ncnc2n1 was tested. Which Potency did it give?
Answer: Its Potency is inconclusive: 39.8 µM [inhibitor, single point].

Question: For CCOC(=O)N1CCc2c(sc(NC(=O)c3ccc(S(=O)(=O)N4CCCC4)cc3)c2C#N)C1, which Potency is on record?
Answer: The Potency was inconclusive: 35.5 µM [inhibitor, partial curve, poor fit].

Question: With Cc1cnc(C2OCCO2)c2cccc(N)c12 as the compound, how does the Potency read?
Answer: The Potency was “inactive”.

Question: How did the Potency turn out when Nc1ccc2nn(-c3ccccc3)nc2c1 was run?
Answer: Its Potency is inconclusive: 79.4 µM [inhibitor, partial curve, poor fit].

Question: With Cc1ccc(S(=O)(=O)N2C[C@@H]3c4ccccc4N(S(=O)(=O)c4ccc(C)cc4)[C@@H]3[C@@H](C)C2CC(=O)c2ccccc2)cc1 (some centres undefined) as the compound, how does the Potency read?
Answer: The Potency was inconclusive: 31.6 µM [inhibitor, single point].

Question: O=C(Nc1cccc(N2CCCC2=O)c1)c1ccccc1SC1CCS(=O)(=O)C1 (centres undefined) was tested. Which Potency did it give?
Answer: The Potency was inconclusive: 50.1 µM [inhibitor, partial curve, poor fit].

Question: How did the Potency turn out when CCc1cccc(-n2c(C)nc3c(cnn3-c3ccc(Cl)cc3)c2=O)c1 was run?
Answer: The Potency was “inactive”.

Question: CN1CCN(C(=S)NC(=O)c2ccc(S(=O)(=O)N3CCOCC3)cc2)CC1 was tested. Which Potency did it give?
Answer: The Potency was inconclusive: 50.1 µM [inhibitor, partial curve, poor fit].

Question: How did the Potency turn out when COCCn1cc2c3c(cccc31)CN(C(=O)c1cc(F)ccc1Cl)CC2 was run?
Answer: Its Potency is active: 25.1 µM.

Question: With COCCN1CC2(CCC1=O)CCN(C(=O)[C@@H]1C[C@@H](O)CN1)CC2 as the compound, how does the Potency read?
Answer: The Potency was inconclusive: 8.91 µM [inhibitor, full curve, poor fit].

Question: For CCN(CC)C(=S)SCc1csc(C)n1, which Potency is on record?
Answer: The Potency was inconclusive: 6.31 µM [inhibitor, full curve, poor fit].

Question: How did the Potency turn out when Cn1c(=O)c(C(=O)c2ccc(S(C)(=O)=O)c(Cl)c2Cl)c(O)c2ccccc21 was run?
Answer: The Potency was inconclusive: 35.5 µM [inhibitor, partial curve, poor fit].

Question: CC(=O)N(C)Cc1cccn1C was tested. Which Potency did it give?
Answer: Its Potency is “inactive”.

Question: COc1ccc(/C=C/c2ccc3cc(C)ccc3n2)cc1O was tested. Which Potency did it give?
Answer: Its Potency is inconclusive: 126 µM [inhibitor, single point].

Question: For O=C(Sc1cccc2cccnc12)c1ccc(F)cc1, which Potency is on record?
Answer: Its Potency is “inactive”.

Question: Which Potency does the source give for Cc1ccc2nc(-c3ccc(C)c(NC(=O)c4cc([N+](=O)[O-])ccc4N4CCOCC4)c3)oc2c1 here?
Answer: Its Potency is “inactive”.

Question: How did the Potency turn out when Cc1cc(C)c2nc(-c3ccncc3)cc(C(=O)N3CCN(Cc4ccccc4Cl)CC3)c2c1 was run?
Answer: Its Potency is inconclusive: 126 µM [inhibitor, single point].

Question: With O=C(CSc1nc2ccsc2c(=O)[nH]1)Nc1ccccc1 as the compound, how does the Potency read?
Answer: The Potency was “inactive”.

Question: How did the Potency turn out when COc1cccc(NC(=O)c2ccc(N3C(=O)C4CC=CCC4C3=O)cc2)c1 (centres undefined) was run?
Answer: The Potency was inconclusive: 126 µM [inhibitor, single point].

Question: Which Potency does the source give for CCC(=O)N1CCN(c2nc(-c3ccco3)c3c(c2C#N)CC(C)(C)SC3)CC1 here?
Answer: The Potency was active: 20 µM.

Question: Which Potency does the source give for O=C(Nc1ccc(Cl)cc1)Nc1nnc(CSCc2ccc(Cl)cc2)s1 here?
Answer: The Potency was “inactive”.

Question: For O=C(O)[C@@H]1C[C@@H](C(=O)O)N1, which Potency is on record?
Answer: The Potency was inconclusive: 35.5 µM [inhibitor, partial curve, poor fit].

Question: CCOc1ccc(CNC(=O)C2CCN(c3nnc(-n4cccc4CNc4ccc(C)cc4)s3)CC2)cc1OC was tested. Which Potency did it give?
Answer: Its Potency is inconclusive: 100 µM [inhibitor, partial curve, poor fit].

Question: With COc1cc(/C=C2\SC(N3CCCCC3)=NC2=O)cc(OC)c1OC as the compound, how does the Potency read?
Answer: The Potency was inconclusive: 44.7 µM [inhibitor, single point].

Question: With O=C(NC1CCCCC1)C(c1ccc(-c2ccccc2)cc1)n1c(=O)c(-c2ccco2)nc2ccccc21 (centres undefined) as the compound, how does the Potency read?
Answer: The Potency was active: 44.7 µM.

Question: For CC(=O)Nc1cccc(NC(=O)Nc2cccc(Cl)c2C)c1, which Potency is on record?
Answer: Its Potency is “inactive”.

Question: How did the Potency turn out when Clc1ccc(N/N=C/c2cccnc2)cc1 was run?
Answer: The Potency was inconclusive: 22.4 µM [inhibitor, partial curve, poor fit].

Question: Which Potency does the source give for COc1ccccc1C1CC(c2ccc(Cl)cc2)Nc2ncnn21 (centres undefined) here?
Answer: The Potency was “inactive”.

Question: Which Potency does the source give for COC(=O)CCC(=O)OC1(C)C(=O)C2=CN(C(CO)CO)C(c3ccc(OC)cc3)=CC2=C(Br)C1=O (centres undefined) here?
Answer: Its Potency is inconclusive: 44.7 µM [inhibitor, partial curve, poor fit].

Question: Cc1cc(Cl)cc2sc(=S)[nH]c12 was tested. Which Potency did it give?
Answer: The Potency was active: 11.2 µM.

Question: How did the Potency turn out when NS(=O)(=O)c1ccc(NC(=S)NC(=O)/C=C/c2ccco2)cc1 was run?
Answer: Its Potency is “inactive”.

Question: For O=C(NCc1ccccc1)c1cccc(-c2cnc3ccccc3c2)c1, which Potency is on record?
Answer: The Potency was “inactive”.

Question: COc1ccc(-c2cnc(C)o2)cc1S(=O)(=O)Nc1ccc(F)cc1 was tested. Which Potency did it give?
Answer: The Potency was “inactive”.

Question: Which Potency does the source give for COc1cc2c(cc1OC)CN(C(=O)CN(Cc1ccccc1)S(=O)(=O)c1ccccc1)CC2 here?
Answer: The Potency was “inactive”.

Question: Which Potency does the source give for CCOC(=O)C(C)Sc1ccc2nnc(-c3ccc(F)cc3)n2n1 (centres undefined) here?
Answer: The Potency was inconclusive: 25.1 µM [inhibitor, full curve, poor fit].

Question: Which Potency does the source give for CCOc1ccc(Br)cc1C(=O)N/N=C/c1c[nH]c2ccccc12 here?
Answer: The Potency was inconclusive: 0.355 µM [inhibitor, full curve, poor fit].

Question: With O=C(CCCOc1ccc(Cl)cc1Cl)Nc1ccccc1C(=O)O as the compound, how does the Potency read?
Answer: Its Potency is inconclusive: 4.47 µM [inhibitor, full curve, poor fit].

Question: Which Potency does the source give for O=C(O)Cc1csc(NC(=O)CSc2nnnn2-c2ccc(O)cc2)n1 here?
Answer: Its Potency is inconclusive: 3.55 µM [inhibitor, partial curve, poor fit].

Question: How did the Potency turn out when ONC=Nc1cccc2nonc12 was run?
Answer: Its Potency is inconclusive: 28.2 µM [inhibitor, partial curve, poor fit].

Question: How did the Potency turn out when O=C(Nc1ccc(C(=O)Nc2cccc3ncccc23)cc1)c1ccccc1 was run?
Answer: Its Potency is inconclusive: 112 µM [inhibitor, single point].

Question: Which Potency does the source give for O=C1CN(c2nc(-c3cccnc3)nc3sc4c(c23)CCCC4)CCN1 here?
Answer: The Potency was “inactive”.

Question: How did the Potency turn out when CN(Cc1cccs1)[C@@H]1CC[C@@]23CCCN2C(=O)CCC[C@H]3[C@H]1Cc1ccccc1 was run?
Answer: Its Potency is inconclusive: 126 µM [inhibitor, single point].

Question: With CCCC(=O)Nc1ccc(C(=O)OC/C(=N/O)c2ccc(OC)cc2)cc1 as the compound, how does the Potency read?
Answer: Its Potency is “inactive”.

Question: For Cc1cc2c(cc1S(=O)(=O)NCc1ccccc1Cl)OCCN2C, which Potency is on record?
Answer: The Potency was inconclusive: 11.2 µM [inhibitor, full curve, poor fit].

Question: Which Potency does the source give for COC1(OC)N=C(N)C2(C#N)C(c3ccc(C)cc3)C12C#N (centres undefined) here?
Answer: Its Potency is inconclusive: 3.55 µM [inhibitor, full curve, poor fit].

Question: Which Potency does the source give for CCc1cc(Cn2nc(-c3ccccc3)cc2C(=O)NCc2cccc(C(F)(F)F)c2)on1 here?
Answer: Its Potency is inconclusive: 39.8 µM [inhibitor, partial curve, poor fit].

Question: How did the Potency turn out when Cc1ccc(C)c(NC(=O)c2ccc3c(O)c(S(=O)(=O)c4ccc(Cl)cc4)c(=O)[nH]c3c2)c1 was run?
Answer: The Potency was inconclusive: 141 µM [inhibitor, single point].

Question: Cc1ccc(N2CC(C(=O)NC3CC3)CC2=O)cc1 (centres undefined) was tested. Which Potency did it give?
Answer: The Potency was inconclusive: 5.01 µM [inhibitor, full curve, poor fit].

Question: O=c1c(C(c2ccc(F)cc2)c2c(O)nc3n(c2=O)CCS3)c(O)nc2n1CCS2 was tested. Which Potency did it give?
Answer: The Potency was “inactive”.
